Experimental findings from doi:10.1101/2020.10.11.334888 (bioRxiv, 2020) are described below.

Protein sequences, listed by entry. Tags and fused reporters are not part of them. Lines headed by an entry give the natural chain unless they say otherwise; changes in a name come on top.
UniProt P15928, whole entry, looked up, stated change not applied: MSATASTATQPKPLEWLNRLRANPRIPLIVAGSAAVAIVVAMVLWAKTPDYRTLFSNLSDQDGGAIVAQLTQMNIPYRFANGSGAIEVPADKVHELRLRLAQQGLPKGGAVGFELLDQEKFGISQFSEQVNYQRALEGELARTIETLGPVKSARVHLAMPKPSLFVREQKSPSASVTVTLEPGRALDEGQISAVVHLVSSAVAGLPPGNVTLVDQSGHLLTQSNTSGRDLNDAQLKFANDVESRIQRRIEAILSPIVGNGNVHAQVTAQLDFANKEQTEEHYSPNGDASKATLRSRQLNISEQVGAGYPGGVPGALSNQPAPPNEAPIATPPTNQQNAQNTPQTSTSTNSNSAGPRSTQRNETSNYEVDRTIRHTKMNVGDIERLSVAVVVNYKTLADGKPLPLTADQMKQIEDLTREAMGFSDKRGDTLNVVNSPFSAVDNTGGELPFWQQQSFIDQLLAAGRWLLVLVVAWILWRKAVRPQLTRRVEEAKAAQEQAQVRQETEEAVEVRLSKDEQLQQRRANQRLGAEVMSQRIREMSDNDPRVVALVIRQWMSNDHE

Results are given in words; binding and its absence hold for the method and conditions named. Binding seen in cells or lysates may run through a third protein. Some binding calls cover weakened binding; strength is not graded here.

The assay deals with FliF(I252C/H263C) expressed from pMMiF011 in Salmonella TH12415 (ΔfliF) (Salmonella enterica serovar Typhimurium) (UniProt P15928). Nature of the assay: cross-linking.

Take “FliF(I252C/H263C) expressed from pMMiF011 in Salmonella TH12415 (ΔfliF) (from UniProt P15928 1-560)”: the binding entry is recorded as “binds”.
